Paper PMC4015952
Results are given in words; binding and its absence hold for the method and conditions named. Binding seen in cells or lysates may run through a third protein. Some results given as binding are weak or reduced against the parent protein; the word gives no strength.

Protein sequences, listed by entry. Tags and fused reporters are not part of them. Chains listed by the source or under a name are the forms on record and can include a tag or linker. Residues count along the entry.
V5-tagged E1 made from core-E1 (Q99IB8, residues 192-383): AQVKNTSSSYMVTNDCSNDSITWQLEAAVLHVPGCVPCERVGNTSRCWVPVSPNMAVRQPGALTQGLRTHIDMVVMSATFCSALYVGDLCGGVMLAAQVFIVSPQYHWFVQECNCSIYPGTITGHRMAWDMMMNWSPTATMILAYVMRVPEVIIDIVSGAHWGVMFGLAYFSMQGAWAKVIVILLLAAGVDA
V5-tagged HCV E2 (2a type, JFH1) (Q99IB8, residues 384-750): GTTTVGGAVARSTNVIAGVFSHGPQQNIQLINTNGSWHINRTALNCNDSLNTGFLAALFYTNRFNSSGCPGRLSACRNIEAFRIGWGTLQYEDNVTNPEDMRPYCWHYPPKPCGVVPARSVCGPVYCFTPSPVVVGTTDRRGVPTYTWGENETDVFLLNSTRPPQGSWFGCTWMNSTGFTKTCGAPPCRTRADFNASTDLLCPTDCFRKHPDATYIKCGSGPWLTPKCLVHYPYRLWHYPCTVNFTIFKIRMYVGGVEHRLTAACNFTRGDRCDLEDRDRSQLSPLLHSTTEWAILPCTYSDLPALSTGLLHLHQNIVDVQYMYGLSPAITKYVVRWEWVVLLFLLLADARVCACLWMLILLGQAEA
UniProt P11021, residues 19-654: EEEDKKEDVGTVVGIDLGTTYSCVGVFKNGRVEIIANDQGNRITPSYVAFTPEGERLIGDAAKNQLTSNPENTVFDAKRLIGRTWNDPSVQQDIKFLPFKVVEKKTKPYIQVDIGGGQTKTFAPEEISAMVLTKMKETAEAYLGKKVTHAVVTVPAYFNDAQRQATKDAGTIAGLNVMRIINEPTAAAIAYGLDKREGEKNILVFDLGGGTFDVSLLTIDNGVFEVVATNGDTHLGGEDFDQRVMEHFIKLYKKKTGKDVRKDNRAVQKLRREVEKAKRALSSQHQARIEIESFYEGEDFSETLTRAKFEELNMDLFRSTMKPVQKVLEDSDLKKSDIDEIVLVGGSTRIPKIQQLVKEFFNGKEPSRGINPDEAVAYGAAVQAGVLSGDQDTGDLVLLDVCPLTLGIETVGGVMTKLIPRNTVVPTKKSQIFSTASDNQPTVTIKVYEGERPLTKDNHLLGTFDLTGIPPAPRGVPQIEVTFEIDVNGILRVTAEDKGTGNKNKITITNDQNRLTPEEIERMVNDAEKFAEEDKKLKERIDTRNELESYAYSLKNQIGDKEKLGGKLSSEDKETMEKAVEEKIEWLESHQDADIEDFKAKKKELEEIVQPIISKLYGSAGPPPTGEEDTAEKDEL

Tests used:
[1] = biological target: T1, AIMP1/p43 expressed from a plasmid in HEK 293 cells (UniProt Q12904); assay: co-IP; HEK 293 cells transfected with V5-grp78 and AIMP1/p43 plasmids along with 2 or 4 µg of HCV E2 plasmid (or E1, core, NS5A); immunoprecipitation with anti-AIMP1/p43 antibody
T1 sequence: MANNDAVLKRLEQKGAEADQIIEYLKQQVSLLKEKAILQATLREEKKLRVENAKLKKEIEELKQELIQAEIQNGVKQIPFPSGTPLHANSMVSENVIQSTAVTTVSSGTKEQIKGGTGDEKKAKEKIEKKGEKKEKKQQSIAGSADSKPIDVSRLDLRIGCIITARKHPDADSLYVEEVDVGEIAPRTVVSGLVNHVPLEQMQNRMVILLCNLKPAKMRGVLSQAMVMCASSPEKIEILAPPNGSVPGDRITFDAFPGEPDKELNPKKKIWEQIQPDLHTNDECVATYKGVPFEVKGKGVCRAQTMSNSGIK

[2] = biological target: T2, cellular AIMP1/p43 in HEK 293 cells (human (endogenous in HEK 293)) (UniProt Q12904); assay: co-IP; transfected HEK 293 cells lysed in RIPA buffer after 36 hours; 2 µg antibody, 4°C, protein G; IgG as control; western blot
T2 sequence: T1 sequence

[3] = biological target: T1, AIMP1/p43 expressed from a plasmid in HEK 293 cells; assay: proximity ligation; HEK293 cells transfected with V5-tagged E2 and AIMP1/p43 plasmids, fixed after 24 hours; Duolink in situ kit; anti-V5 and anti-AIMP1/p43 primary antibodies
[4] = biological target: T1, AIMP1/p43 expressed from a plasmid in HEK 293 cells; assay: co-IP; transfected HEK 293 cells lysed in RIPA buffer after 36 hours; 2 µg antibody, 4°C, protein G; IgG as control; western blot

Q: For “HCV E2 co-expressed with grp78 and AIMP1/p43 (from UniProt Q99IB8 384-750)”, which binding [1] is on record?
A: Its binding is “binds”.

Q: For “V5-tagged E1 made from core-E1 (from UniProt Q99IB8 192-383)”, which binding [2] is on record?
A: The binding was “no binding”.

Q: How did the binding [2] turn out when “V5-tagged HCV E2 (2a type, JFH1) (from UniProt Q99IB8 384-750)” was run?
A: Its binding is “binds”.

Q: What about the binding [3] of the same substance?
A: The binding was “binds”.

Q: How did the binding [4] turn out when “V5-tagged grp78 (from UniProt P11021 19-654)” was run?
A: The binding was “binds”.
